Measurements from patent publication US20050266004A1 (published 2005).
No constants are given. Whether binding was seen depends on the method and setting. Some entries that bind do so weakly or less than the wild type.

Molecular target: T1, recombinant human lymphotoxin alpha (rhuLTα) (human) (UniProt P01374)
T1 sequence (looked up): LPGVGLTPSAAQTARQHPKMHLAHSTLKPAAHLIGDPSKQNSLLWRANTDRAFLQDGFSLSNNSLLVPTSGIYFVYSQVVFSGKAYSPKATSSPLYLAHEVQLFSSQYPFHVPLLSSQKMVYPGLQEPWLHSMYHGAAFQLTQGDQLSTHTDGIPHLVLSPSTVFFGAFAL
Assay: EIA, rhuLTα coated on plates

B1: murine anti-human LTα Mab 4 (antibody, V domains shown)
VH: PGLVAPAQSLSITCTVSGFSLTSYGVHWVRQPPGKGLEWLGVIWAGGNTNYNSPLMSRLRIIKDNSKSQVFLKMNSLQADDTAMYYCVSHDVNNPFGYWGQGTLVTVSA
VL: DIQMTQTTSSLSASLGDRVTISCRASQDITNYLNWYQQKPDGTVKLLIYYTSRLHSGVPSRFSGSGSGTDYSLTISNLEQEDIATYFCQQGNTLPYTFGGGTRLEIK
notes: Tested as the murine IgG1 kappa hybridoma Mab; also called Mab number 4
**Q.** How did the binding turn out when B1 was run?
**A.** binds
